Laboratory results: PubChem BioAssay AID504793 (Drosophila RNAi Screening Center, 2011)
Aim: 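Genes required for cells to halt at G2/M after double-strand DNA breaks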 (primary screen). Cells: Drosophila S2R+ cells. Reagents: long dsRNA against Drosophila genes, about 0.25 µg dsRNA per well. Timing: 4 days of dsRNA, then 4 hours of drug before read-out. Treatment: doxorubicin 0.5 µM for 4 hours to cause double-strand breaks, in cells also given a low, harmless dose of dsRNA against nbs to sensitise the assay. Detection: 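Per-well count of mitotic cells stained for phospho-histone H3 after doxorubicin exposure, used as mitotic index; counts are raw and not normalised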. Direction: mitotic cells: higher = more cells in mitosis, weaker G2 arrest. Rule for the call: 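Genes are called active only when high mitotic counts were reproduced with independent dsRNAs and mitosis was checked for delay without damage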. Meaning of the calls: active = confirmed in follow-up tests; inactive = not confirmed.
In all, the deposit lists about 23,000 reagents; shown is a random part of those that have a named target and a result. Of all reagents, 62 (0.27%) got an active call. 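Calls come from follow-up tests whose scores are not deposited, so confirmed genes may have low counts here; counts are not normalised per plate.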 The raw values are shown without normalisation. Entries without a mark were called inactive. A plus sign joins genes that one reagent is predicted to hit.

predicted target	DRSC id	mitotic cells, replicate 1
CG10211 (GeneID 35106)	DRSC02027	5
CG10211 (GeneID 35106)	DRSC28675	8
Prosbeta5R2 (GeneID 318924)	DRSC01617	3
Prosbeta5R2 (GeneID 318924)	DRSC29767	15
CG8072 (GeneID 39181)	DRSC10960	9
Ice2 (GeneID 42507)	DRSC14268	8
Ugt35C1 (GeneID 53507)	DRSC16080	2
Ugt35C1 (GeneID 53507)	DRSC28306	2
ACXE (GeneID 53426)	DRSC00847	6
CG9691 (GeneID 31923)	DRSC18441	12
kappaB-Ras + CG30503	DRSC06619	10
kappaB-Ras + CG30503	DRSC07636	4
kappaB-Ras + CG30503	DRSC25537	9
Dtwd2 + Obp84a	DRSC12603	7
Dtwd2 + Obp84a	DRSC26806	1
RpS30 (GeneID 42470)	DRSC15119	5
RpS30 (GeneID 42470)	DRSC26355	9
NetB (GeneID 32400)	DRSC20262	6
NetB (GeneID 32400)	DRSC26437	8
CG3982 (GeneID 39084)	DRSC23139	21
CG3982 (GeneID 39084)	DRSC26894	4
CG17050 (retired record) (GeneID 36482)	DRSC06651	8
CG30416 (GeneID 246603)	DRSC04565	6
Pc (GeneID 40358)	DRSC24966	5
Mal-A1 (GeneID 35824)	DRSC07461	5
Mal-A1 (GeneID 35824)	DRSC29096	3
CG13339 (GeneID 36528)	DRSC06373	9
CG11044 (GeneID 37281)	DRSC06026	6
CG11044 (GeneID 37281)	DRSC27143	6
CG13937 (GeneID 38249)	DRSC08406	10
alpha-Est7 (GeneID 40901)	DRSC12619	11
alpha-Est7 (GeneID 40901)	DRSC27539	7
CG42260 (GeneID 37614)	DRSC03953	3
CG42260 (GeneID 37614)	DRSC04172	6
CG42260 (GeneID 37614)	DRSC04385	7
CG42260 (GeneID 37614)	DRSC29385	3
Urod (GeneID 35986)	DRSC07569	6
Urod (GeneID 35986)	DRSC30007	6
CG32249 (GeneID 317939)	DRSC08101	5
CG32249 (GeneID 317939)	DRSC08177	2
CG32249 (GeneID 317939)	DRSC22444	12
dare + CG30033	DRSC22908	5
eg (GeneID 40428)	DRSC11885	5
eg (GeneID 40428)	DRSC26147	4
vvl (GeneID 38752)	DRSC11409	5
vvl (GeneID 38752)	DRSC26681	7
CG9287 (GeneID 34194)	DRSC03186	8
CG9287 (GeneID 34194)	DRSC22790	10
CR33328 (retired record) (GeneID 3771751)	DRSC22954	11
CR33328 (retired record) (GeneID 3771751)	DRSC27200	8
CG2104 (GeneID 40702)	DRSC12304	4
CG8677 (GeneID 35397)	DRSC03107	4
CG8677 (GeneID 35397)	DRSC23559	2
Nplp1 (GeneID 38003)	DRSC04370	3
CG32221 (GeneID 317924)	DRSC09638	2
CG14478 (GeneID 36964)	DRSC06450	3
Sec61beta (GeneID 46080)	DRSC07548	9
Sec61beta (GeneID 46080)	DRSC21512	11
Sec61beta (GeneID 46080)	DRSC28915	4
Prps (GeneID 39132)	DRSC08994	8
Prps (GeneID 39132)	DRSC10707	6
Prps (GeneID 39132)	DRSC10708	3
CG11898 (GeneID 43451)	DRSC14432	8
CG11898 (GeneID 43451)	DRSC27906	6
NUCB1 (GeneID 39978)	DRSC22137	11
NUCB1 (GeneID 39978)	DRSC29109	6
CG30010 (GeneID 246389)	DRSC05193	10
CG31677 (GeneID 318880)	DRSC22023	14
CG4935 (GeneID 34955)	DRSC01924	3
Osi12 (GeneID 40766)	DRSC12177	11
wam (GeneID 42755)	DRSC15171	13
DJ-1alpha (GeneID 36543)	DRSC07005	5
CG2871 (GeneID 31411)	DRSC18230	7
CG2871 (GeneID 31411)	DRSC21719	5
S-Lap2 (GeneID 326209)	DRSC10628	2
Sgs3 (GeneID 39288)	DRSC11280	7
Sgs3 (GeneID 39288)	DRSC28210	2
Rat1 (GeneID 33964)	DRSC02044	5
COX5BL (GeneID 33919)	DRSC02123	5
COX5BL (GeneID 33919)	DRSC27300	4
CG13038 (GeneID 50268)	DRSC09919	5
CG16790 (GeneID 41155)	DRSC15156	10
CG34430 (GeneID 5740489)	DRSC06499	1
Ras64B (GeneID 38494)	DRSC08689	5
Ras64B (GeneID 38494)	DRSC26766	5
Nox (GeneID 5740310)	DRSC06596	9
Nox (GeneID 5740310)	DRSC06857	5
Nox (GeneID 5740310)	DRSC27816	5
Nox (GeneID 5740310)	DRSC29856	8
Msh6 (GeneID 39654)	DRSC10759	5
CG9304 (GeneID 37500)	DRSC04538	1
CG9304 (GeneID 37500)	DRSC26210	8
Gr97a (GeneID 117338)	DRSC13802	15
Neurochondrin (GeneID 40796)	DRSC12580	4
Neurochondrin (GeneID 40796)	DRSC26704	2
Afti (GeneID 41744)	DRSC16440	8
Afti (GeneID 41744)	DRSC29272	6
mAChR-C (GeneID 31626)	DRSC17890	19
mAChR-C (GeneID 31626)	DRSC27441	5
CG15522 (GeneID 43546)	DRSC15059	16
CG15522 (GeneID 43546)	DRSC29412	8
CG11131 (GeneID 40511)	DRSC11636	8
CG11131 (GeneID 40511)	DRSC21736	3
CG11131 (GeneID 40511)	DRSC28565	10
CR42532 (GeneID 8674101)	DRSC06713	6
COX5A (GeneID 41432)	DRSC16611	6
Pex6 + Hao	DRSC06097	2
Pex6 + Hao	DRSC06704	9
Gabat (GeneID 40188)	DRSC10846	5
CG40439 (GeneID 3355120)	DRSC22707	11
CG40439 (GeneID 3355120)	DRSC26673	6

No new results follow: entries from further up.
predicted target	DRSC id	mitotic cells, replicate 1
CG16790 (GeneID 41155)	DRSC15156	10
CG34430 (GeneID 5740489)	DRSC06499	1
Ras64B (GeneID 38494)	DRSC08689	5
Ras64B (GeneID 38494)	DRSC26766	5
Nox (GeneID 5740310)	DRSC06596	9
Nox (GeneID 5740310)	DRSC06857	5
Nox (GeneID 5740310)	DRSC27816	5
Nox (GeneID 5740310)	DRSC29856	8
Msh6 (GeneID 39654)	DRSC10759	5
CG9304 (GeneID 37500)	DRSC04538	1
CG9304 (GeneID 37500)	DRSC26210	8
Gr97a (GeneID 117338)	DRSC13802	15
Neurochondrin (GeneID 40796)	DRSC12580	4
Neurochondrin (GeneID 40796)	DRSC26704	2
Afti (GeneID 41744)	DRSC16440	8
Afti (GeneID 41744)	DRSC29272	6
mAChR-C (GeneID 31626)	DRSC17890	19
